# In US20100136061A1 (LA JOLLA INSTITUTE FOR ALLERGY AND IMMUNOLOGY, published 2010):
# By UniProt entry, the sequences of proteins in these tests, tags left out. Where a name states a change or a piece, a line headed by the entry shows the natural chain unless it says otherwise. Residues count along the entry.
# UniProt O43557: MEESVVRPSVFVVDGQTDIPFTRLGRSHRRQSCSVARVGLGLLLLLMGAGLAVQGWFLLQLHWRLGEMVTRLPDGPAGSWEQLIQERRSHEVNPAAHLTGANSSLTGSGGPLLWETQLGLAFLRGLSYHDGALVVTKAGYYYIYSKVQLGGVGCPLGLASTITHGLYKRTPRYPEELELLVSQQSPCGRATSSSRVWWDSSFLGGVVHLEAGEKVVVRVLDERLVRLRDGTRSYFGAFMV
# UniProt P36941, residues 31-227: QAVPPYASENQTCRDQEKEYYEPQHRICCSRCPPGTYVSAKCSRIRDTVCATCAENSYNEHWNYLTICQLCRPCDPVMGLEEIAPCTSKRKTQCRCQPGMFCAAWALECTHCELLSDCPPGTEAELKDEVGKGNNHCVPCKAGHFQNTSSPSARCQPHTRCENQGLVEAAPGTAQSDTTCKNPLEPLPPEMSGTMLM
# UniProt Q80WM9, residues 39-206: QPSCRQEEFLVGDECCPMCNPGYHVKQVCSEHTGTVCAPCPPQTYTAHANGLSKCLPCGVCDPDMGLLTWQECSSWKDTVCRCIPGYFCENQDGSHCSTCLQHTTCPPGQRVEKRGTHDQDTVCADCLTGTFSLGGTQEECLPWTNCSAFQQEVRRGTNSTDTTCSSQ
# These are yes or no findings as the source states them, for the method shown. Some binding calls cover weakened binding; strength is not graded here. For some assays here: Tags and fused reporters may be left off the sequences shown.
# B1: DcR3-Fc (human Decoy Receptor 3 Fc fusion) (Fc fusion, UniProt O95407 30-300, looked up)
# chain: VAETPTYPWRDAETGERLVCAQCPPGTFVQRPCRRDSPTTCGPCPPRHYTQFWNYLERCRYCNVLCGEREEEARACHATHNRACRCRTGFFAHAGFCLEHASCPPGAGVIAPGTPSQNTQCQPCPPGTFSASSSSSEQCQPHRNCTALGLALNVPGSSSHDTLCTSCTGFPLSTRVPGAEECERAVIDFVAFQDISIKRLQRLLQALEAPEGWGPTPRAGRAALQLKLRRRLTELLGAQDGALLVRLLQALRVARMPGLERSVRERFLPVH
# notes: also called human DcR3; not shown: Fc part
# Legend:
# [1] = target: Heterotrimeric human LIGHT 32L-214E/32S-214K (combination of LIGHT-S32L and LIGHT-E214K subunits) expressed on EL4 cells (human) (UniProt O43557); assay: flow cytometry on EL4 cells expressing LIGHT variants
# [2] = target: Heterotrimeric human LIGHT 32L-214E/32S-214K (combination of LIGHT-S32L and LIGHT-E214K subunits) expressed on EL4 cells (human) (UniProt O43557); assay: flow cytometry, graded LTβR-Fc on EL4 cells expressing LIGHT variants
# [3] = target: Soluble human LIGHT (LIGHTt66), biotinylated and immobilized through Neutravidin on biotinylated, formalin-fixed EL4 cells (human) (UniProt O43557); assay: flow cytometry on LIGHT-decorated EL4 cells (EL4-NA-LIGHT), mouse HVEM-Fc 20 µg/ml
# [4] = target: Heterotrimeric human LIGHT 32L-214E/32S-214K (combination of LIGHT-S32L and LIGHT-E214K subunits) expressed on EL4 cells (human) (UniProt O43557); assay: flow cytometry, graded DcR3-Fc on EL4 cells expressing LIGHT variants
Molecule,binding [1],binding [2],binding [3],binding [4]
LTβR-Fc (human Lymphotoxin-β receptor Fc fusion) (from UniProt P36941 31-227),binds,binds,,
mouse HVEM-Fc (from UniProt Q80WM9 39-206) (Fc fusion),,,binds,
B1,binds,,,binds
